Results deposited as PubChem BioAssay AID743458 (Peter MacCallum Cancer Centre, 2014).
In all, the deposit lists about 1,800 reagents; shown is a part drawn at random. In the full data, 732 (41%) are marked active. 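Calls are per siRNA reagent; a gene was deemed confirmed only if most of its four siRNAs scored.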 Reagents against one gene are numbered here.

- Purpose: 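Find knock-downs that make vorinostat-resistant colon cancer cells sensitive again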 (follow-up of hits)
- Cell system: human HCT116-VR colon cancer cells made resistant to vorinostat
- Reagent: single siRNA or pool against human genes, 25 nM per single siRNA
- Timing: about 72 h after transfection, including 24 h of drug
- Treatment: vorinostat, 2.5 µM final, for 24 h
- Read-out: 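Cell viability by fluorescence and apoptosis by caspase 3/7 luminescence under vorinostat, background-corrected, averaged across two plate copies and given as fold change versus mock transfection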
- Reading the numbers: viability relative to mock: higher = more living cells than mock; caspase activity relative to mock: higher = more apoptosis than mock
- Rule for the call: 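Active means a reduced-viability or caspase-activation class, anything else inactive; classes could only be given to wells that looked healthy when left untreated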

target | reagent | viability relative to mock | caspase activity relative to mock | viability hit class | caspase hit class | outcome
ZNF830 | 1 | 0.86 | 1.92 | no change | no change | inactive
ZNF830 | 2 | 0.5 | 5.56 | reduced viability | caspase activation | active
ZNF830 | 3 | 0.52 | 4.49 | reduced viability | caspase activation | active
ZNF830 | 4 | 0.84 | 0.92 | no change | no change | inactive
LBHD1 | 1 | 0.88 | 2.77 | no change | caspase activation | active
LBHD1 | 2 | 0.82 | 1.99 | no change | no change | inactive
LBHD1 | 3 | 0.82 | 3.09 | no change | caspase activation | active
LBHD1 | 4 | 0.67 | 2.67 | no change | caspase activation | active
TBC1D20 | 1 | 0.7 | 4.73 | no change | caspase activation | active
TBC1D20 | 2 | 0.66 | 1.14 | no change | no change | inactive
TBC1D20 | 3 | 0.38 | 3.18 | reduced viability | caspase activation | active
TBC1D20 | 4 | 0.56 | 3.46 | reduced viability | caspase activation | active
RTKN | 1 | 0.66 | 4.03 | no change | caspase activation | active
RTKN | 2 | 0.6 | 2.82 | no change | caspase activation | active
RTKN | 3 | 0.8 | 1.17 | no change | no change | inactive
RTKN | 4 | 0.68 | 1.4 | no change | no change | inactive
DDX18 | 1 | 0.46 | 2.61 | reduced viability | caspase activation | active
DDX18 | 2 | 0.58 | 1.58 | no change | no change | inactive
DDX18 | 3 | 0.54 | 1.23 | reduced viability | no change | active
DDX18 | 4 | 0.42 | 1.64 | reduced viability | no change | active
GPX4 | 1 | 0.6 | 5.16 | no change | caspase activation | active
GPX4 | 2 | 0.96 | 0.98 | no change | no change | inactive
GPX4 | 3 | 0.96 | 0.9 | no change | no change | inactive
GPX4 | 4 | 0.88 | 3.52 | no change | caspase activation | active
UTP3 | 1 | 0.72 | 2.06 | no change | no change | inactive
UTP3 | 2 | 0.61 | 2.26 | no change | no change | inactive
UTP3 | 3 | 0.6 | 3.21 | no change | caspase activation | active
UTP3 | 4 | 0.2 | 2.17 | reduced viability | no change | active
FMR1 | 1 | 0.52 | 4.13 | reduced viability | caspase activation | active
FMR1 | 2 | 0.82 | 1.96 | no change | no change | inactive
FMR1 | 3 | 0.83 | 1.88 | no change | no change | inactive
FMR1 | 4 | 0.75 | 2.13 | no change | no change | inactive
RAB29 | 1 | 0.72 | 5.16 | no change | caspase activation | active
RAB29 | 2 | 0.31 | 3.73 | reduced viability | caspase activation | active
RAB29 | 3 | 0.82 | 1.66 | no change | no change | inactive
RAB29 | 4 | 0.73 | 1.59 | no change | no change | inactive
PCP4 | 1 | 0.76 | 0.68 | no change | no change | inactive
PCP4 | 2 | 0.12 | 3.13 | reduced viability | caspase activation | active
PCP4 | 3 | 0.26 | 3.67 | reduced viability | caspase activation | active
PCP4 | 4 | 0.61 | 4.62 | no change | caspase activation | active
RNF167 | 1 | 1.04 | 1.84 | no change | no change | inactive
RNF167 | 2 | 0.94 | 1.11 | no change | no change | inactive
RNF167 | 3 | 0.53 | 4.04 | reduced viability | caspase activation | active
RNF167 | 4 | 0.77 | 2.18 | no change | no change | inactive
CFAP410 | 1 | 0.95 | 1.71 | no change | no change | inactive
CFAP410 | 2 | 0.86 | 2.92 | no change | caspase activation | active
CFAP410 | 3 | 0.94 | 1.25 | no change | no change | inactive
CFAP410 | 4 | 1.03 | 2.15 | no change | no change | inactive
ZNF441 | 1 | 0.8 | 3.67 | no change | caspase activation | active
ZNF441 | 2 | 0.48 | 4.42 | reduced viability | caspase activation | active
ZNF441 | 3 | 0.62 | 4.31 | no change | caspase activation | active
ZNF441 | 4 | 0.82 | 1.96 | no change | no change | inactive
OR10V1 | 1 | 0.9 | 1.26 | no change | no change | inactive
OR10V1 | 2 | 0.99 | 1.09 | no change | no change | inactive
OR10V1 | 3 | 0.81 | 1.53 | no change | no change | inactive
OR10V1 | 4 | 0.88 | 1.36 | no change | no change | inactive
CSE1L | 1 | 0.48 | 2.97 | reduced viability | caspase activation | active
CSE1L | 2 | 0.4 | 4.87 | reduced viability | caspase activation | active
CSE1L | 3 | 0.68 | 6.13 | no change | caspase activation | active
CSE1L | 4 | 0.81 | 1.14 | no change | no change | inactive
